Test results as given in the supplement of paper PMC7661543.
The effect of the compound repeats well; differences between the knockouts mostly do not.

Tested on: SKBR3
Experiment: relative cell number vs DMSO control (72 h) (% of DMSO); higher = less growth inhibition (more cells)
Experimental: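 QMAP-Seq: a pool of 5 breast cancer cell lines (ZR-75-1, SKBR3, HCC-38, MDA-MB-231, BT-20), each carrying 12 doxycycline-inducible Cas9 sgRNA perturbations (11 knockouts plus non-targeting sgNT), was treated with compounds for 72 h at four 10-fold doses (10 nM-10 uM or 1 nM-1 uM range). Barcodes were amplified and sequenced, and cell number was interpolated from 293T spike-in standard curves. The result is expressed as % of the median of DMSO wells. Two biological replicates.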

N[C@@H](CC(=O)N1CCn2c(nnc2C(F)(F)F)C1)Cc1cc(F)c(F)cc1F [Sitagliptin]
Settings	relative cell number
sgRNA knockout: sgATF3, 10 nM	111
sgRNA knockout: sgATF3, 100 nM	112
sgRNA knockout: sgATF3, 1000 nM	112
sgRNA knockout: sgATF3, 10000 nM	91.1
sgRNA knockout: sgATF4, 10 nM	94.3
sgRNA knockout: sgATF4, 100 nM	98.7
sgRNA knockout: sgATF4, 1000 nM	105
sgRNA knockout: sgATF4, 10000 nM	99.4
sgRNA knockout: sgATF6, 10 nM	119
sgRNA knockout: sgATF6, 100 nM	96.1
sgRNA knockout: sgATF6, 1000 nM	127
sgRNA knockout: sgATF6, 10000 nM	113
sgRNA knockout: sgATG7, 10 nM	103
sgRNA knockout: sgATG7, 100 nM	87.4
sgRNA knockout: sgATG7, 1000 nM	89
sgRNA knockout: sgATG7, 10000 nM	111
sgRNA knockout: sgERN1, 10 nM	96.4
sgRNA knockout: sgERN1, 100 nM	111
sgRNA knockout: sgERN1, 1000 nM	112
sgRNA knockout: sgERN1, 10000 nM	95.4
sgRNA knockout: sgHSF1, 10 nM	108
sgRNA knockout: sgHSF1, 100 nM	79.3
sgRNA knockout: sgHSF1, 1000 nM	108
sgRNA knockout: sgHSF1, 10000 nM	110.5
sgRNA knockout: sgHSF2, 10 nM	99.4
sgRNA knockout: sgHSF2, 100 nM	97.7
sgRNA knockout: sgHSF2, 1000 nM	104
sgRNA knockout: sgHSF2, 10000 nM	87.6
sgRNA knockout: sgKEAP1, 10 nM	92.5
sgRNA knockout: sgKEAP1, 100 nM	92.5
sgRNA knockout: sgKEAP1, 1000 nM	95.5
sgRNA knockout: sgKEAP1, 10000 nM	104
sgRNA knockout: sgNFE2L2, 10 nM	121
sgRNA knockout: sgNFE2L2, 100 nM	109
sgRNA knockout: sgNFE2L2, 1000 nM	103
sgRNA knockout: sgNFE2L2, 10000 nM	91.1
sgRNA knockout: sgSLC35F2, 10 nM	116
sgRNA knockout: sgSLC35F2, 100 nM	73.6
sgRNA knockout: sgSLC35F2, 1000 nM	103
sgRNA knockout: sgSLC35F2, 10000 nM	92.7
sgRNA knockout: sgXBP1, 10 nM	95.7
sgRNA knockout: sgXBP1, 100 nM	100
sgRNA knockout: sgXBP1, 1000 nM	117
sgRNA knockout: sgXBP1, 10000 nM	81.56

CNC(=O)c1cc(Oc2ccc(NC(=O)Nc3ccc(Cl)c(C(F)(F)F)c3)cc2)ccn1 [Sorafenib]
Settings	relative cell number
sgRNA knockout: sgATF3, 10 nM	135
sgRNA knockout: sgATF3, 100 nM	141
sgRNA knockout: sgATF3, 1000 nM	144
sgRNA knockout: sgATF3, 10000 nM	51.1
sgRNA knockout: sgATF4, 10 nM	105
sgRNA knockout: sgATF4, 100 nM	116
sgRNA knockout: sgATF4, 1000 nM	121
sgRNA knockout: sgATF4, 10000 nM	37.6
sgRNA knockout: sgATF6, 10 nM	111
sgRNA knockout: sgATF6, 100 nM	107
sgRNA knockout: sgATF6, 1000 nM	130
sgRNA knockout: sgATF6, 10000 nM	38.7
sgRNA knockout: sgATG7, 10 nM	114
sgRNA knockout: sgATG7, 100 nM	115
sgRNA knockout: sgATG7, 1000 nM	102
sgRNA knockout: sgATG7, 10000 nM	44.8
sgRNA knockout: sgERN1, 10 nM	97.4
sgRNA knockout: sgERN1, 100 nM	128
sgRNA knockout: sgERN1, 1000 nM	113
sgRNA knockout: sgERN1, 10000 nM	44.2
sgRNA knockout: sgHSF1, 10 nM	98.4
sgRNA knockout: sgHSF1, 100 nM	117
sgRNA knockout: sgHSF1, 1000 nM	107
sgRNA knockout: sgHSF1, 10000 nM	43.1
sgRNA knockout: sgHSF2, 10 nM	98.4
sgRNA knockout: sgHSF2, 100 nM	120
sgRNA knockout: sgHSF2, 1000 nM	106
sgRNA knockout: sgHSF2, 10000 nM	37.1
sgRNA knockout: sgKEAP1, 10 nM	100
sgRNA knockout: sgKEAP1, 100 nM	107
sgRNA knockout: sgKEAP1, 1000 nM	109
sgRNA knockout: sgKEAP1, 10000 nM	40.7
sgRNA knockout: sgNFE2L2, 10 nM	102.2
sgRNA knockout: sgNFE2L2, 100 nM	126
sgRNA knockout: sgNFE2L2, 1000 nM	89.4
sgRNA knockout: sgNFE2L2, 10000 nM	34.9
sgRNA knockout: sgSLC35F2, 10 nM	94.3
sgRNA knockout: sgSLC35F2, 100 nM	114
sgRNA knockout: sgSLC35F2, 1000 nM	110
sgRNA knockout: sgSLC35F2, 10000 nM	49.6
sgRNA knockout: sgXBP1, 10 nM	106
sgRNA knockout: sgXBP1, 100 nM	113
sgRNA knockout: sgXBP1, 1000 nM	121
sgRNA knockout: sgXBP1, 10000 nM	43.6

Fc1ccc(CNc2ncnc3ccc(F)cc23)cc1 [Spautin1]
Settings	relative cell number
sgRNA knockout: sgATF3, 10 nM	104
sgRNA knockout: sgATF3, 100 nM	76.7
sgRNA knockout: sgATF3, 1000 nM	97.1
sgRNA knockout: sgATF3, 10000 nM	101
sgRNA knockout: sgATF4, 10 nM	104
sgRNA knockout: sgATF4, 100 nM	97
sgRNA knockout: sgATF4, 1000 nM	98.9
sgRNA knockout: sgATF4, 10000 nM	89.2
sgRNA knockout: sgATF6, 10 nM	102
sgRNA knockout: sgATF6, 100 nM	92.4
sgRNA knockout: sgATF6, 1000 nM	95.8
sgRNA knockout: sgATF6, 10000 nM	88.2
sgRNA knockout: sgATG7, 10 nM	99
sgRNA knockout: sgATG7, 100 nM	85.5
sgRNA knockout: sgATG7, 1000 nM	87.4
sgRNA knockout: sgATG7, 10000 nM	112
sgRNA knockout: sgERN1, 10 nM	98.2
sgRNA knockout: sgERN1, 100 nM	93.1
sgRNA knockout: sgERN1, 1000 nM	91
sgRNA knockout: sgERN1, 10000 nM	77.1
sgRNA knockout: sgHSF1, 10 nM	84.8
sgRNA knockout: sgHSF1, 100 nM	90.91
sgRNA knockout: sgHSF1, 1000 nM	96.4
sgRNA knockout: sgHSF1, 10000 nM	106
sgRNA knockout: sgHSF2, 10 nM	86.4
sgRNA knockout: sgHSF2, 100 nM	99
sgRNA knockout: sgHSF2, 1000 nM	103
sgRNA knockout: sgHSF2, 10000 nM	79.8
sgRNA knockout: sgKEAP1, 10 nM	112
sgRNA knockout: sgKEAP1, 100 nM	109
sgRNA knockout: sgKEAP1, 1000 nM	90.7
sgRNA knockout: sgKEAP1, 10000 nM	83.1
sgRNA knockout: sgNFE2L2, 10 nM	97.3
sgRNA knockout: sgNFE2L2, 100 nM	95.22
sgRNA knockout: sgNFE2L2, 1000 nM	99.1
sgRNA knockout: sgNFE2L2, 10000 nM	95.9
sgRNA knockout: sgSLC35F2, 10 nM	97.3
sgRNA knockout: sgSLC35F2, 100 nM	95.4
sgRNA knockout: sgSLC35F2, 1000 nM	97.7
sgRNA knockout: sgSLC35F2, 10000 nM	87
sgRNA knockout: sgXBP1, 10 nM	113
sgRNA knockout: sgXBP1, 100 nM	82
sgRNA knockout: sgXBP1, 1000 nM	94.1
sgRNA knockout: sgXBP1, 10000 nM	104
